Consider one compound from paper PMC12048343, “Discovery of a small molecule secreted clusterin enhancer that improves memory in Alzheimer’s disease mice” (npj Drug Discovery, 2025).

What is called EC50 is the midpoint of the concentration-response curve.

“Also recorded” adds a separate entry of the source.

The test system of this assay is sCLU secreted from human U-87 MG glioblastoma cells. Nature of the assay: Human sCLU AlphaLISA on supernatant of U-87 MG cells (HTS, re-test, dose response). The assay is classed as cell-based. On the procedure: Cell culture supernatant (2 μL) was added to a 384-well proxy plate preloaded with AlphaLISA HiBlock buffer (2 µL, 1X, CAT#AL004C, Perkin Elmer). Then an anti-sCLU antibody mixture (2 µL, mAb J84, biotinylated (10 nM, Cat# 3717-6-1000, Mabtech) and mAb CLU aa 22-227 (Cat#AF7084, R&D Systems), Acceptor bead conjugated (50 µg/mL, Cat#6772001, Perkin Elmer)) was added and incubated at room temperature for 1 hour. AlphaScreen Streptavidin Donor beads (2 µL, Cat#6760002S, Perkin Elmer) were added, incubated for an additional 30 min in the dark, and the plate was read in an Envision plate reader.
Human glioblastoma U-87 MG cells were proliferated in EMEM with 10% FBS and 1% P/S (complete medium) in 10 cm dishes until approximately 90% confluent. Following trypsinization, a suspension of 2 × 10^5 cells/mL (25 µL) were added to 384-well plates containing complete medium (25 µL) and library compounds from 9 plates (5 µM). After incubation for 30 h at 37 °C and 5% CO2, 2 μL of cell culture supernatant were analyzed via human sCLU AlphaLISA as described above. […]
Human glioblastoma U-87 MG cells were proliferated in EMEM with 10% FBS and 1% P/S (complete medium) in 10 cm dishes until approximately 90% confluent. […] After incubation for 30 hours at 37 °C and 5% CO2, 2 μL of cell culture supernatant were analyzed via human sCLU AlphaLISA as described above.
(Alpha assays give light when donor and acceptor beads are brought close together.)

Consider `O=C(CCCCCCC(=O)Nc1ccccc1)NO` [vorinostat], for which the “sCLU levels relative to DMSO control” value (5 µM) is “increased sCLU; also recorded: significantly increase sCLU levels”. For the same compound, under “Homo sapiens, dose response, text and figures”, a half-maximal effect (EC50) was put at 2040 nM.
